In test [1] the target is T1, FtsZ from Pseudomonas aeruginosa (P. aeruginosa, UniProt P47204 1-394).
T1 construct: FtsZ, Pseudomonas aeruginosa; cloned in pET15b at NdeI/BamHI; Forms protofilaments and bundles with GTP; also called PaFtsZ; source: E. coli BL21 (pET15b), purified (Talon column, thrombin, source Q 10/10)
T1 sequence (looked up): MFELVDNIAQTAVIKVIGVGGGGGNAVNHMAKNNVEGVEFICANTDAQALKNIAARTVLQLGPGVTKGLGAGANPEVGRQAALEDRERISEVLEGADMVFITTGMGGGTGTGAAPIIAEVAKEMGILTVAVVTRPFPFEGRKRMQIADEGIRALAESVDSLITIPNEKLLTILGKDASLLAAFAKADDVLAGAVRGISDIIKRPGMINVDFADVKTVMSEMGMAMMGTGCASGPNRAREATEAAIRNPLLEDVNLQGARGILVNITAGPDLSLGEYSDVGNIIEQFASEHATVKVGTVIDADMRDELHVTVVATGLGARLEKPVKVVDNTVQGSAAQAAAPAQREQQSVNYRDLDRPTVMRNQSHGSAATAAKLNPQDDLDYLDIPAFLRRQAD
The test can be described thus: negative stain electron microscopy; HEK buffer (50 mM HEPES, 100 mM KAc, 1 mM EDTA, pH 7.5), GTP, room temperature; 10 µM PaFtsZ alone; both purified.

Test [2] deals with T1, FtsZ from Pseudomonas aeruginosa. The test can be described thus: condition: only in HEK buffer (1 mM EDTA, no Mg, pH 7.5); 10 µM PaFtsZ; negative stain electron microscopy; HEK buffer (50 mM HEPES, 100 mM KAc, 1 mM EDTA, pH 7.5), GTP, room temperature; 10 µM PaFtsZ alone; both purified.
The target is the same in test [3]. As to the kind of experiment: condition: only in HEK buffer (1 mM EDTA, no Mg, pH 7.5); 5 µM PaFtsZ with 10 µM ZapA; negative stain electron microscopy; HEK buffer (50 mM HEPES, 100 mM KAc, 1 mM EDTA, pH 7.5), GTP, room temperature; 5 µM PaFtsZ with 10 µM ZapA; both purified.

No constants are given. Whether binding was seen depends on the method and setting. Some entries that bind do so weakly or less than the wild type.

“FtsZ from Pseudomonas aeruginosa (from UniProt P47204 1-394)”: the results for the binding entry in test [1], in test [2] and in test [3] were “binds weakly”, “no binding” and “no binding”, respectively.

For the origin of these results see paper PMC7721900, “Assembly properties of bacterial tubulin homolog FtsZ regulated by the positive regulator protein ZipA and ZapA from Pseudomonas aeruginosa” (Scientific Reports, 2020).
